No constants are given. Whether binding was seen depends on the method and setting. Binding seen in cells or lysates may run through a third protein. Some results given as binding are weak or reduced against the parent protein; the word gives no strength. Where a sequence is shown, tags or fusion partners need not be part of it.
T1: N-terminal Flag-tagged Skint1 (mouse) (UniProt A7TZE6)
T1 sequence: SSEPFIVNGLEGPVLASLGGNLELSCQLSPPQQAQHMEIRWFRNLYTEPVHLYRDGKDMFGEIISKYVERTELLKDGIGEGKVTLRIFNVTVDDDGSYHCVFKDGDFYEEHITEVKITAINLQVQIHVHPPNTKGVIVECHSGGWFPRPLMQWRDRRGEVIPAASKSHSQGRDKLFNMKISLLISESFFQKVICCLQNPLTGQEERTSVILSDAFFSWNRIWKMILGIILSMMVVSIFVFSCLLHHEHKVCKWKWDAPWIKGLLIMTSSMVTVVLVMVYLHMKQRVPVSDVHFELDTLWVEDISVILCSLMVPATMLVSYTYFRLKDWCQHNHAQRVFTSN

T2: N-terminal Flag-tagged Skint1 expressed in transgenic mice (NF-Skint1^Tg) (mouse) (UniProt A7TZE6)
T2 sequence: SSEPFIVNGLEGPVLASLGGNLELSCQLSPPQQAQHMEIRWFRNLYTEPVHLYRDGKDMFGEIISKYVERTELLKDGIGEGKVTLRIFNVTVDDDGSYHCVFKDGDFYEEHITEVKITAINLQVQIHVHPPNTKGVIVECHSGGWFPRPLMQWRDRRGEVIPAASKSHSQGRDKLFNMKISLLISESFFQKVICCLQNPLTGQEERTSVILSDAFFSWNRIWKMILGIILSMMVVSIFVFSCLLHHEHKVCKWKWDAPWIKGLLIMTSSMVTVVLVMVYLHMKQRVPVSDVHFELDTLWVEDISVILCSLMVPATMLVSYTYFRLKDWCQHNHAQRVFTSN


Key:
[1] = molecular target: T1, N-terminal Flag-tagged Skint1 (mouse); experiment: co-IP; anti-Skint1 immunoprecipitation from RIPA lysates of 293T cells co-transfected with Flag-Skint1 and HA-Skint2; Protein G beads, three washes in RIPA buffer; western blot
[2] = molecular target: T2, N-terminal Flag-tagged Skint1 expressed in transgenic mice (NF-Skint1^Tg) (mouse); experiment: co-IP; anti-Flag (M2 beads, overnight at 4 °C) immunoprecipitation from RIPA lysates of pooled E17/E18 thymi of NF-Skint1^Tg (22) and FVB (12) pups; three washes in RIPA buffer; 3xFlag peptide eluate or boiled beads; western blot with anti-Skint1 and anti-Skint2

| binding [1] | binding [2] | Binder |
| --- | --- | --- |
| binds | – | HA-tagged Skint2 (protein, UniProt A7XUX6 22-400) SEKFTVTGLQRPVLAPLGGNVELSCQLSPPQQAQHMEIRWFRNRYREPVYLYRNGKDLHGETISKYVERTELLKDDIGKGKVTLRIFKLTADDDGSYHCVFKVGEFYEEHITEIKVTATSSVMYILMQPPNIKGVMLECHSGGWFPQPHMEWRDNKGNIIPATSKAHSQDENKLFNMTMTLLIEASSHRSITCYLQNLLTHQEESISIVLSGELFSWKRVWIMILTTIGFMMIAFCMTYCVQQHLLYGTFSKGKCHWLKSTMIFMFSVIAVTGVMLILHLKQRVPVSDQHFELDTLWLEDISVILCVLIVFIIKLISFIYFRLEGDHQGWSLPPYLSATPTAAICRLAVPEYSRGHLQLDSEDDLAGMGPSPFFITPCF |
| – | binds | Skint2, endogenous, untagged (protein, UniProt A7XUX6 22-400) SEKFTVTGLQRPVLAPLGGNVELSCQLSPPQQAQHMEIRWFRNRYREPVYLYRNGKDLHGETISKYVERTELLKDDIGKGKVTLRIFKLTADDDGSYHCVFKVGEFYEEHITEIKVTATSSVMYILMQPPNIKGVMLECHSGGWFPQPHMEWRDNKGNIIPATSKAHSQDENKLFNMTMTLLIEASSHRSITCYLQNLLTHQEESISIVLSGELFSWKRVWIMILTTIGFMMIAFCMTYCVQQHLLYGTFSKGKCHWLKSTMIFMFSVIAVTGVMLILHLKQRVPVSDQHFELDTLWLEDISVILCVLIVFIIKLISFIYFRLEGDHQGWSLPPYLSATPTAAICRLAVPEYSRGHLQLDSEDDLAGMGPSPFFITPCF |

Reference: PMC7387338
